US20050107353A1, “Methods of treating lower urinary tract disorders using losigamone” (Dynogen Pharmaceuticals, Inc., priority 2003, published 2005)
“Also recorded” adds a separate entry of the source.

Tested on: acetic acid-induced reduction of bladder capacity
Test: Dilute acetic acid model: bladder capacity by filling cystometry during continuous intravesical acetic acid irritation
Assay type: in vivo, rat
Settings: intravenous, increasing doses, rats during continuous irritation
Description: The objective of the current study was to determine the effect of TTX-R sodium channel modulators or use dependent sodium channel modulators on the ability to reverse the reduction in bladder capacity seen following continuous infusion of dilute acetic acid, a commonly used model of lower urinary tract disorders including overactive bladder.
Animal Preparation: Female rats (250-275 g BW) were anesthetized with urethane (1.2 g/kg) and a saline-filled catheter (PE-50) was inserted into either the jugular vein for intravenous (i.v.; saline vehicle) or the proximal duodenum for intraduodenal (i.d.; distilled water or 10% Tween 80 in saline as vehicle) drug administration. Via a midline lower abdominal incision, a flared-tipped PE 50 catheter was inserted into the bladder dome for bladder filling and pressure recording and secured by ligation. The abdominal cavity was moistened with saline and closed by covering with a thin plastic sheet in order to maintain access to the bladder for emptying purposes. Fine silver or stainless steel wire electrodes were inserted into the external urethral sphincter (EUS) percutaneously for electromyography (EMG). […]
Data were analyzed by non-parametric ANOVA for repeated measures (Friedman Test) with Dunn's Multiple Comparison test. […]

Compound: CCN(CC)CC(=O)Nc1c(C)cccc1C [Lidocaine, 2-(diethylamino)-N-(2,6-dimethylphenyl)acetamide]
- effect on bladder capacity (reversal of acetic acid-induced reduction): capable of partially reversing the reduction in bladder capacity caused by acetic acid in a dose-dependent fashion; also recorded: dose-dependent and statistically significant reversal
- effect on bladder capacity (reversal of acetic acid-induced reduction) (listed as lidocoaine): dose-dependent, statistically significant increases in bladder capacity
